In patent US20220332780A1:
Results are given in words; binding and its absence hold for the method and conditions named. Some binding calls cover weakened binding; strength is not graded here.

Sequences of proteins named here, by UniProt entry; tags and fusion partners are left off. A change or cut given only in a name is not applied to a line headed by its entry.
UniProt Q13261: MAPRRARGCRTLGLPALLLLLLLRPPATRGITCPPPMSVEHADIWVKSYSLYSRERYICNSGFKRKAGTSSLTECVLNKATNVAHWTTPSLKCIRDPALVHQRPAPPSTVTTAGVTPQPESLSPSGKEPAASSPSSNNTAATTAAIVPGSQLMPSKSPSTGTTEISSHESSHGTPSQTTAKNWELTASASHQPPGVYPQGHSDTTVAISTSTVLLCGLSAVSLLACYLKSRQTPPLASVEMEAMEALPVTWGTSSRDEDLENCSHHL

Legend:
[1] = target: IL15-295 (ACZ-regulated membrane-bound IL15, variant B7-1 tail, linked to the CA2 (M1del, L156H) DRD) (human); test: flow cytometry of transduced human T cells from mouse blood on day 25, stained with IL15Ra-Fc and fluorochrome conjugated anti-human IgG antibody
[2] = target: IL15-293 (ACZ-regulated membrane-bound IL15 linked to the CA2 (M1del, L156H) DRD) (human); test: as above
[3] = target: IL15-294 (constitutive membrane-bound IL15, variant B7-1 tail) (human); test: as above
[4] = target: IL15-293 (ACZ-regulated membrane-bound IL15 linked to the CA2 (M1del, L156H) DRD) (human); test: flow cytometry of transduced TIL, co-stained with anti-IL15 and IL15Ra-Fc (IL15+IL15Ra-Fc+ double positive population)
[5] = target: IL15-293 (ACZ-regulated membrane-bound IL15 linked to the CA2 (M1del, L156H) DRD) (human); test: flow cytometry of transduced cord blood NK cells, stained with IL15Ra-Fc and anti-CD56 antibody

Measured: binding

IL15Ra-Fc (recombinant protein comprised of extracellular domain of IL15Ra fused to human IgG1 Fc domain) (from UniProt Q13261 31-205) (Fc fusion)
binds: [1] | [2] | [3] | [4] | [5]
